This experiment can be described thus: qHTS Assay for Modulators of Lamin A Splicing. To be noted: HeLa LMNA splicing GFP/RFP minigene ratio, 48 h. In a few lines: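 S3 HeLa stable clones carrying a lamin A-EGFP splicing minigene plus DsRed2 were seeded at 600 cells/well in Opti-MEM with 2% FBS, pin-dosed and incubated 48 h at 37°C. Acumen cytometry (488 nm) gave the GFP/RFP total-intensity ratio.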

Where [1] appears, read: measured here: GFP splicing reporter channel.
The mark [2] stands for this setting: measured here: RFP viability control channel.

Here are results for 54 molecules from PubChem BioAssay AID1487 (National Center for Advancing Translational Sciences (NCATS), 2009).

As usually defined, the AC50 is the concentration giving half of the maximal activity seen.

SMILES strings stand for the structures. The list shows a part of the results. These are further read-outs of the screen, such as a control signal, another cell line or another target. No call is given for them. Compounds called inactive in the main read-out are mostly missing here. Potencies come from curve fits of mixed quality, noted in brackets.

Regarding `CN(C)Cc1ccccc1Sc1ccccc1Br`, the AC50 by setting is: under setting [1], 7.94 µM [rising, partial curve, poor fit]; under setting [2], 11.2 µM [rising, partial curve, poor fit].

Turning to `CCCNC(=O)OCCC12CC3CC(CC(C3)C1)C2`, the AC50 under setting [1] was 22.4 µM [rising, single point].

Regarding `CC(=O)C1=NN(c2ccccc2)C2(S1)S/C(=C\c1ccccc1)C(=O)N2c1ccccc1` (stereo unspecified), the AC50 under setting [2] is 11.2 µM [rising, partial curve].

As for `CCOc1cc(/C=N/NC(=O)CSc2nncn2C)ccc1OCc1ccccc1`, the AC50 under setting [1] is 3.55 µM [rising, full curve, poor fit].

On to `O=C(NCCOC(=O)c1ccc(Cl)c(S(=O)(=O)N2CCCCC2)c1)c1ccncc1`, for which the AC50 runs as follows: under setting [1], 15.8 µM [rising, single point]; under setting [2], 15.8 µM [rising, single point].

For the molecule `CN(c1ccc(Cl)cc1)S(=O)(=O)c1nnc(NC(=O)c2ccco2)s1`, under setting [2], the AC50 was 35.5 µM [rising, single point].

`CC1=NNC(=O)/C1=C\c1cn(-c2ccccc2)nc1-c1cccs1`: under setting [2], the AC50 was 20 µM [rising, partial curve].

Turning to `CC(C)NC(=S)NC(=O)/C=C/c1ccc(F)cc1`, the AC50 under setting [2] is 11.2 µM [rising, single point].

In the case of `COc1cc(NS(=O)(=O)c2ccc(NC(=O)c3ccco3)cc2)nc(OC)n1`, the AC50 under setting [2] is 0.158 µM [rising, full curve, poor fit].

Regarding `Cc1ccc(N2CCN(C(=O)Nc3cn(CC(C)C)c(=O)c4ccccc34)CC2)c(C)c1`, the half-maximal activity concentration (AC50) under setting [1] was 35.5 µM [falling, single point].

Take `CCCCN1C(=O)/C(=C2\SC(N3CCCCC3)=NC2=O)c2ccccc21`: the AC50 reads like this: under setting [1], 10 µM [rising, partial curve, poor fit]; under setting [2], 14.1 µM [rising, single point].

For the molecule `O=C(Nc1ccccc1-c1nc2ccccc2s1)c1ccco1`, the AC50 under setting [1] was 2 µM [rising, partial curve, poor fit].

Turning to `Cc1ccccc1NS(=O)(=O)c1ccc(NC(=O)CSCc2ccc(Br)cc2)cc1`, the AC50 was 4.47 µM [falling, partial curve] under setting [1] and 7.94 µM [falling, partial curve, poor fit] under setting [2].

For the molecule `CCOC(=O)n1c(=O)n(Cc2ccc(Cl)cc2Cl)c2ccccc21`, the AC50 under setting [2] was 22.4 µM [rising, partial curve].

As to `C=C(C)CSc1nncn1/N=C/c1ccc(OC)cc1`, under setting [1], the AC50 was 14.1 µM [rising, single point].

Turning to `CCC(C)(c1nnnn1-c1c(C)cccc1C)N(N=O)c1ccccc1Cl` (stereo unspecified), the AC50 runs as follows: under setting [1], 22.4 µM [rising, single point]; under setting [2], 14.1 µM [rising, partial curve, poor fit].

With `Cc1ccc(CNC(=O)c2ccc(CSCc3c(F)cccc3Cl)o2)cc1`, the AC50 under setting [2] is 35.5 µM [rising, single point].

With `CCCNC(=O)c1ccccc1NC(=O)c1ccc(CSc2ccccc2)cc1`, under setting [2], the AC50 is 14.1 µM [rising, single point].

`CCCN1C2CCCC1CC(NC(=S)NCCCOCC)C2` (stereo unspecified): under setting [2], the AC50 was 1.58 µM [falling, full curve, poor fit].

Regarding `CC(C(=O)NC(=O)NC1CCCCC1)N1CCN(c2ccccn2)CC1` (stereo unspecified), the AC50 is 20 µM [rising, partial curve] under setting [1] and 11.2 µM [rising, single point] under setting [2].

Regarding `Cc1ccc(-c2cn3c(n2)sc2cc(C(=O)NC4CCCCC4)ccc23)cc1`, the AC50 under setting [2] was 12.6 µM [rising, partial curve, poor fit].

As for `Cc1ccc(C(=O)NC(=S)Nc2cccc(NC(=O)c3ccccc3)c2)cc1[N+](=O)[O-]`, the AC50 under setting [2] is 3.16 µM [rising, partial curve, poor fit].

As for `CCCCOCC(O)CCc1n[nH]c(=S)n1-c1ccccc1` (stereo unspecified), the AC50 is 0.0224 µM [falling, full curve, poor fit] under setting [1] and 0.0891 µM [falling, full curve] under setting [2].

In the case of `COc1ccc(S(=O)(=O)n2ccc(C(C)Oc3ccc(-c4ccccc4)c(F)c3)n2)cc1` (stereo unspecified), the AC50 under setting [2] is 11.2 µM [rising, partial curve].

As to `Cc1cccn2c(=O)c(C=O)c(N3CCN(c4ccc(F)cc4)CC3)nc12`, the AC50 runs as follows: under setting [1], 10 µM [rising, partial curve]; under setting [2], 10 µM [rising, partial curve].

With `CCc1nc2ccccc2c(C(=O)OCc2nnc(-c3ccccc3)o2)c1C`, under setting [2], the AC50 was 31.6 µM [rising, single point].

Take `Cc1ccc(S(=O)(=O)Nc2ccccc2-c2ccccc2)cc1`: the AC50 reads like this: under setting [1], 3.98 µM [falling, full curve]; under setting [2], 4.47 µM [falling, full curve].

Take `CCSc1nnc(NC(=O)CSc2nnc(CNC(=O)c3ccccc3F)o2)s1`: the half-maximal activity concentration (AC50) under setting [1] was 14.1 µM [rising, single point].

Regarding `COc1ccc(CN(C2CCCC2)S(=O)(=O)c2ccc(-n3cnnn3)cc2)cc1`, the AC50 under setting [2] was 31.6 µM [rising, single point].

Consider `CC(=O)Nc1cccc(C(=O)/C=C/c2ccc(N(C)C)cc2)c1`, for which the AC50 runs as follows: under setting [1], 10 µM [rising, partial curve]; under setting [2], 25.1 µM [rising, partial curve].

As for `O=C(COC(=O)c1ccc2[nH]c3c(c2c1)CCCC3)Nc1ccccc1`, the concentration at half-maximal activity (AC50) by setting is: under setting [1], 22.4 µM [rising, single point]; under setting [2], 22.4 µM [rising, single point].

Regarding `N#C/C(=N\Nc1ccc(S(=O)(=O)N2CCc3ccccc32)cc1)C(N)=S`, the AC50 is, setting by setting: under setting [1], 25.1 µM [rising, single point]; under setting [2], 14.1 µM [rising, partial curve].

Turning to `Cc1c(Cl)cccc1N=Cc1ccc([N+](=O)[O-])s1`, the AC50 runs as follows: under setting [1], 25.1 µM [falling, single point]; under setting [2], 35.5 µM [falling, single point].

In the case of `CCn1c(SCC(=O)Nc2nc(-c3ccccc3)cs2)nnc1-c1ccccc1`, the AC50 under setting [1] was 12.6 µM [rising, single point] and the concentration at half-maximal activity (AC50) under setting [2] was 17.8 µM [rising, single point].

Turning to `CC(=O)c1ccc(NC(=O)c2nn(C)c3c2CS(=O)(=O)c2ccccc2-3)cc1`, the half-maximal activity concentration (AC50) by setting is: under setting [1], 3.16 µM [rising, partial curve, poor fit]; under setting [2], 15.8 µM [rising, single point].

With `O=C(CCBr)N1CCN(C(=O)CCBr)CC1`, the AC50 under setting [1] was 12.6 µM [falling, partial curve, poor fit] and the AC50 under setting [2] was 0.501 µM [falling, single point].

For `COCC(C)n1c(=O)sc2ccccc2c1=O` (stereo unspecified), under setting [1], the AC50 was 3.55 µM [rising, partial curve].

With `O=C(Nc1ccc(Cl)cc1)c1cnc(-c2ccccc2)nc1-c1ccccc1`, the AC50 under setting [1] is 35.5 µM [falling, single point] and the AC50 under setting [2] was 25.1 µM [falling, partial curve].

With `CN(C)S(=O)(=O)c1ccc(Cl)c(NC(=O)CSc2nc3c(cc2C#N)C(=O)CC(C)(C)C3)c1`, the AC50 is 22.4 µM [rising, single point] under setting [1] and 25.1 µM [rising, partial curve] under setting [2].

For the molecule `Cc1cc(C)c(C)c(S(=O)(=O)N2CCN(c3ccc(O)cc3)CC2)c1C`, under setting [2], the AC50 was 22.4 µM [rising, single point].

Regarding `COc1ccc(Nc2nc(NC(C)(C)C)nc(N3CCCC3)n2)c(OC)c1`, the AC50 reads like this: under setting [1], 22.4 µM [rising, partial curve, poor fit]; under setting [2], 15.8 µM [rising, single point].

Take `COc1ccc(N(C(=O)c2cccnc2)S(=O)(=O)c2cccc([N+](=O)[O-])c2)cc1`: the AC50 under setting [2] was 2.82 µM [rising, partial curve].

Take `COc1cc(/C=C2\SC(N)=NC2=O)ccc1OCC(=O)Nc1ccc(C)cc1`: under setting [2], the AC50 was 14.1 µM [falling, partial curve, poor fit].

Consider `CCOc1ccc(NC(=O)C[n+]2ccc(N(C)C)cc2)cc1`, for which the AC50 under setting [2] was 35.5 µM [rising, single point].

For `Cn1c(Cn2c(=O)sc3ccccc32)nnc1SCc1ccc(F)cc1`, the AC50 under setting [2] is 22.4 µM [rising, partial curve].

Consider `COc1ccc(OC)c(NC(=O)C2CCN(Cc3cnn(-c4ccccc4)c3-n3cccc3)CC2)c1`, for which, under setting [2], the half-maximal activity concentration (AC50) is 11.2 µM [rising, single point].

Take `Cc1cccc(NC(c2nnc(-c3ccccc3)o2)c2ccc(F)cc2Cl)c1C` (stereo unspecified): the AC50 under setting [1] is 7.08 µM [rising, partial curve, poor fit].

In the case of `Cc1ccc(-c2cn3c(n2)sc2cc(C(=O)NC4CCCCCC4)ccc23)c(C)c1`, the AC50 under setting [2] is 15.8 µM [rising, partial curve].

With `O=C(NCc1ccccc1)c1ccc2c(c1)sc1nc(-c3ccc(F)cc3)cn12`, the AC50 under setting [1] is 0.0178 µM [falling, full curve, poor fit].

`COC(=O)/C=C1\N/C(=N\c2nc(C)cc(C)n2)N(c2ccc(C)c(C)c2)C1=O`: the AC50 under setting [2] was 31.6 µM [rising, single point].

Take `CCc1ccccc1NC(=O)CSc1nc2ccccc2nc1Cc1cccc(OC)c1`: the half-maximal activity concentration (AC50) is, setting by setting: under setting [1], 0.355 µM [rising, full curve]; under setting [2], 3.98 µM [rising, partial curve].

For the molecule `CC1(C)Cc2c(sc3nnn(CC(=O)Nc4ccccc4)c(=O)c23)CO1`, under setting [1], the AC50 was 1.58 µM [rising, partial curve].

For `O=C(NCc1ccc2c(c1)OCO2)c1ccc(-c2ccc(Cl)cc2)o1`, the AC50 reads like this: under setting [1], 12.6 µM [rising, single point]; under setting [2], 17.8 µM [rising, single point].

In the case of `Cc1nc2c(ccc3nc(NC(=O)c4ccc5c(c4)OCCO5)sc32)s1`, the AC50 was 2.82 µM [rising, partial curve] under setting [1] and 35.5 µM [falling, single point] under setting [2].
